The text below walks through data of patent US20100183584A1, “CONFORMATION AND ACTIVITY OF GBETA5 COMPLEXES” (University Of Miami, priority 2007, published 2010).

Assay [1] deals with in vitro translated Gαi. As to the kind of experiment: GST pull-down of in vitro translated 35S-labelled protein, autoradiography.
In assay [2] the target is in vitro translated Gαq. Described as above.
Assay [3] addresses in vitro translated Gαi. As to the kind of experiment: GST pull-down, autoradiography.
Assay [4] addresses in vitro translated Gαq. As to the kind of experiment: GST pull-down, autoradiography.
The target of assay [5] is purified recombinant Gβ1γ2 complex (baculovirus-expressed). As to the kind of experiment: GST pull-down of purified baculovirus-expressed Gβ1γ2, western blot with anti-Gβ1.
For assay [6] the target is unchanged. The assay is described as follows: GST pull-down of purified complex, western blot.

These are yes or no findings as the source states them, for the method shown. For part of these data: Binding seen in cells or lysates may run through a third protein. For part of these data: Binding can be weak; no strength is given. Where a sequence is shown, tags or fusion partners need not be part of it.

B1: GST-R7DEP (GST fusion of amino acids 34-124 of bovine RGS7) (protein, UniProt O46470 34-124, looked up, not shown: a dimerising Fc or GST)
chain: MQDEKNGIPIRTVKSFLSKIPSVFSGSDIVQWLIKNLTIEDPVEALHLGTLMAAHGYFFPISDHVLTLKDDGTFYRFQTPYFWPSNCWEPE
In the case of B1, the binding entry in the assay with in vitro translated Gαi [1] is “no binding”; with in vitro translated Gαq [2], “no binding”; with in vitro translated Gαi [3], “no binding”; with in vitro translated Gαq [4], “no binding”; in assay [5], “binds”; in assay [6] it was “binds”.
